Source: PubChem BioAssay AID1508588 (Peter MacCallum Cancer Centre, 2020)
This is one part, drawn at random, of about 18,000 reagents. 790 of all reagents (4.4%) were called active. 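Calls rest on a combination of fold-change classes in drug and vehicle arms, not all shown here.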 Unmarked entries are inactive. No sequences are given here.

Screen: 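Which gene losses make BRAF-mutant melanoma cells more responsive to vemurafenib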 (primary screen)
System: human WM266.4 melanoma cells (BRAF V600 mutant)
Knock-down reagent: siRNA pool against human genes, 40 nM
Time to read-out: 96 h from transfection to read-out
Conditions: vemurafenib 300 nM (about IC25), added 48 h after transfection, for 48 h; comparison arm got DMSO vehicle only
Detection: 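Cell gain (DAPI nuclei at end minus before drug, mean of two replicates) and medium lactate by absorbance per cell, both as ratio to non-targeting siRNA, also grouped into fold-change classes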
Reading the numbers: cell gain with vemurafenib: higher = more cell gain than with non-targeting siRNA; lactate per cell with vemurafenib: higher = more lactate made per cell
Call rule: 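Enhancement is called by pairing each knock-down's vehicle-arm and drug-arm fold-change classes for viability or glycolysis; which class combinations qualify is not given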
Meaning of the calls: active = enhances vemurafenib effect; inactive = no enhancement seen

Target gene	cell gain with vemurafenib	lactate per cell with vemurafenib
PSD2	0.87	1.17
EIF3B	0.28	0.59
NECAP1	0.72	1.16
TRERF1	0.6	0.82
C10orf88	0.76	0.95
ATP5MC3	0.52	0.6
ROPN1	1	0.87
AADAC	0.88	0.55
EML5	0.57	1.13
MLXIPL	0.6 (active)	0.46
RSAD1	0.7	0.55
HDAC6	0.55	0.8

Entries listed so far called active:
Target gene	cell gain with vemurafenib	lactate per cell with vemurafenib
MLXIPL	0.6 (active)	0.46

Continued.
Target gene	cell gain with vemurafenib	lactate per cell with vemurafenib
AMTN	0.41	0.56
KLF13	0.97	0.8
NDEL1	0.62	1.54
KCNJ5	0.64	1.34
EED	0.22	1.61
MATK	0.99	1.08
OSBPL3	0.76	1.06
POU1F1	0.56	1.73
FKBP1A	0.41	0.3
FSCN1	0.55	1.25
KRTAP15-1	0.11 (active)	0.67
HCST	0.86	0.72
DENND3	0.33	1.12
DCTN2	0.63	0.6
RAP2C	0.4	1.47
PCDHAC1	0.83	0.4
KCNG1	0.86	0.85
ZNF563	0.04	2.46
MT1B	0.7	0.78
ZC3H8	0.77	0.66
ARHGAP45	0.79	0.57
NINL	0.58	1.32
